At least one structure is not confirmed: it was looked up by name or label, or the drawing left a doubt.
System: quail cardiomyocytes
Settings: dose-dependently; FIG. 4

For `CC(=O)OCC[N+](C)(C)C` [acetylcholine], the “Effect on cardiomyocytes contractility” value was “decreased”.

Reference: patent US20240417425A1 (priority 2021, published 2024)
